In patent publication US20110104240A1, “Nitric Oxide Device and Method for Wound Healing, Treatment of Dermatological Disorders and Microbial Infections” (Micropharma Limited, priority 2008, published 2011):

Test system: porcine liver esterase
Test: Enzymatic generation of gNO with porcine liver esterase, sodium nitrite and ester substrates
Format: biochemical
Settings: sodium nitrite

## CC(=O)OCC(COC(C)=O)OC(C)=O [triacetin, glyceryl triacetate]
0.5% triacetin
  gNO production: ≤ 200 ppmV
1% triacetin in the assay
  gNO production: up to 250 ppmV
